At least one peptide structure holds a part that was inferred or is arguable (an end, a ring closure or a residue). Some compounds share one wording; it may come from a single statement. Where a SMILES comes first, the peptide text is derived from it. Bridges are numbered along the chain shown (N, C = ends). [ ]: non-standard residue; d: D form. Tic = O=C(O)[C@@H]1Cc2ccccc2CN1; Pen = CC(C)(S)[C@H](N)C(=O)O; βAla = NCCC(=O)O
The compounds below were run on osteoclasts; αv β3 integrin receptor (assay: Series of assays of Example II (summary of potency and selectivity, FIG. 2)). Conditions: in words.

Question: With `CC(=O)N[C@@H]1C(=O)N[C@@H](Cc2ccccc2)C(=O)N[C@@H](C)C(=O)N[C@@H](CCCNC(=N)N)C(=O)NCC(=O)N[C@@H](CC(=O)O)C(=O)N[C@@H](CC(N)=O)C(=O)N2Cc3ccccc3C[C@H]2C(=O)N[C@H](C(N)=O)CSSC1(C)C` [compound 373] (Ac-[Pen]FARGDN[Tic]C-NH2; disulfide 1-9) as the compound, how does the “potency (active at a relatively low concentration)” value read?
Answer: particularly potent

Question: How did the “potency (active at a relatively low concentration)” value turn out when `COc1ccc(C[C@@H]2NC(=O)[C@@H](NC(C)=O)C(C)(C)SSC[C@@H](C(N)=O)NC(=O)[C@@H]3Cc4ccccc4CN3C(=O)[C@H](CC(N)=O)NC(=O)[C@H](CC(=O)O)NC(=O)CNC(=O)[C@H](CCCNC(=N)N)NC(=O)[C@H](C)NC2=O)cc1` [compound 183] (Ac-[Pen]Y(Me)ARGDN[Tic]C-NH2; disulfide 1-9) was run?
Answer: particularly potent

Question: With `CC(=O)N[C@H]1CSSC(C)(C)[C@@H](C(N)=O)NC(=O)[C@@H]2Cc3ccccc3CN2C(=O)[C@H](CC(N)=O)NC(=O)[C@H](CC(=O)O)NC(=O)CNC(=O)[C@H](CCCNC(=N)N)NC1=O` [compound 441] (Ac-CRGDN[Tic][Pen]-NH2; disulfide 1-7) as the compound, how does the “potency (active at a relatively low concentration)” value read?
Answer: particularly potent

Question: With `CC(=O)N[C@H]1CSSC[C@@H](C(=O)N[C@@H](CCCCN)C(N)=O)NC(=O)[C@@H]2Cc3ccccc3CN2C(=O)[C@H](CC(N)=O)NC(=O)[C@H](CC(=O)O)NC(=O)CNC(=O)[C@H](CCCNC(=N)N)NC(=O)[C@H](C)NC(=O)[C@H](C)NC1=O` [compound 431] (Ac-CAARGDN[Tic]CK-NH2; disulfide 1-9) as the compound, how does the “potency (active at a relatively low concentration)” value read?
Answer: particularly potent

Question: Which “potency (active at a relatively low concentration)” value does the source give for `CC(=O)N[C@H]1CSSC[C@@H](C(=O)N[C@@H](C)C(=O)N[C@@H](CCCCN)C(N)=O)NC(=O)[C@@H]2Cc3ccccc3CN2C(=O)[C@H](CO)NC(=O)[C@H](CC(=O)O)NC(=O)CNC(=O)[C@H](CCCNC(=N)N)NC1=O` [compound 429] (Ac-CRGDS[Tic]CAK-NH2; disulfide 1-7) here?
Answer: particularly potent

Question: How did the “potency (active at a relatively low concentration)” value turn out when `C[C@H](NC(=O)[C@@H]1CSSC[C@H](NC(=O)CN)C(=O)N[C@@H](CCC(=O)O)C(=O)N2CCC[C@H]2C(=O)N[C@@H](CCCNC(=N)N)C(=O)NCC(=O)N[C@@H](CC(=O)O)C(=O)N[C@@H](CC(N)=O)C(=O)N2Cc3ccccc3C[C@H]2C(=O)N1)C(N)=O` [compound 199] (H-GCEPRGDN[Tic]CA-NH2; disulfide 2-10) was run?
Answer: particularly potent

Question: For `C[C@@H]1NC(=O)CNC(=O)CC[C@@H](C(N)=O)NC(=O)[C@@H]2Cc3ccccc3CN2C(=O)[C@H](CO)NC(=O)[C@H](CC(=O)O)NC(=O)CNC(=O)[C@H](CCCNC(=N)N)NC(=O)[C@H](C)NC1=O` [compound 110] (GAARGDS[Tic]E-NH2; lactam N-9), which “potency (active at a relatively low concentration)” value is on record?
Answer: particularly potent

Question: With `CC(=O)N[C@H]1CSSC[C@@H](C(N)=O)NC(=O)[C@@H]2Cc3ccccc3CN2C(=O)[C@H](CO)NC(=O)[C@H](CC(=O)O)NC(=O)CNC(=O)[C@H](CCCNC(=N)N)NC(=O)[C@H](C)NC(=O)[C@H](C)NC1=O` [compound 196] (Ac-CAARGDS[Tic]C-NH2; disulfide 1-9) as the compound, how does the “potency (active at a relatively low concentration)” value read?
Answer: particularly potent

Question: Which “potency (active at a relatively low concentration)” value does the source give for `C[C@@H]1NC(=O)CCNC(=O)C[C@@H](C(N)=O)NC(=O)[C@@H]2Cc3ccccc3CN2C(=O)[C@H](CC(N)=O)NC(=O)[C@H](CC(=O)O)NC(=O)CNC(=O)[C@H](CCCNC(=N)N)NC(=O)[C@H](C)NC1=O` [compound 197] ([βAla]AARGDN[Tic]D-NH2; lactam N-9) here?
Answer: particularly potent

Question: `CC(=O)N[C@@H]1C(=O)N[C@@H](Cc2ccccc2)C(=O)N[C@@H](C)C(=O)N[C@@H](CCCNC(=N)N)C(=O)NCC(=O)N[C@@H](CC(=O)O)C(=O)N[C@@H](CO)C(=O)N2Cc3ccccc3C[C@H]2C(=O)N[C@H](C(N)=O)CSSC1(C)C` [compound 202] (Ac-[Pen]FARGDS[Tic]C-NH2; disulfide 1-9) was tested. Which “potency (active at a relatively low concentration)” value did it give?
Answer: particularly potent
